One assay concerns the target T1, Gluc2-pRb (UniProt P06400).
T1 sequence: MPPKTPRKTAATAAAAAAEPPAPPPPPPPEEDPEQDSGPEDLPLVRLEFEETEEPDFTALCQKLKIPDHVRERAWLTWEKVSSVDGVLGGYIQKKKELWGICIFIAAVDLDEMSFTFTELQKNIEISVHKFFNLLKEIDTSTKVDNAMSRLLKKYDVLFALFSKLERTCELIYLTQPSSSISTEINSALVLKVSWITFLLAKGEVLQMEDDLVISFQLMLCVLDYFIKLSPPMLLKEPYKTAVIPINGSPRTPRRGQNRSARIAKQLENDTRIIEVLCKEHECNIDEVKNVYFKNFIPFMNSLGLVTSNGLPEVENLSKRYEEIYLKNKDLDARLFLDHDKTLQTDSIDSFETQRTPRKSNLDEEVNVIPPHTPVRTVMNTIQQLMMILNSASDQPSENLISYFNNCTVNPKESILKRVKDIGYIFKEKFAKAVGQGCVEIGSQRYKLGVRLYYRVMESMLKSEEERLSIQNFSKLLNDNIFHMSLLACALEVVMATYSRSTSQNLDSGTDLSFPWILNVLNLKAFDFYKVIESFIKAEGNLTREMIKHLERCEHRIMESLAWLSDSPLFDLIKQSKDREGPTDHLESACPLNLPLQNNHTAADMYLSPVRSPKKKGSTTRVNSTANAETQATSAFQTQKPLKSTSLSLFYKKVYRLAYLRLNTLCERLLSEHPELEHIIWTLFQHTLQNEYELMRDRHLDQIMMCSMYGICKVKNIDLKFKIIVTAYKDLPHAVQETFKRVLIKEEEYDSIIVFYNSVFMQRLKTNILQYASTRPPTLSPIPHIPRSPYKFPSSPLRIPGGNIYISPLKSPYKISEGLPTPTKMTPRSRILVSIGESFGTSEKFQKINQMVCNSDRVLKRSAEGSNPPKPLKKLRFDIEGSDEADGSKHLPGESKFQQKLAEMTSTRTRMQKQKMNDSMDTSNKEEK
Kind of assay: split reporter.

The next assay addresses T2, Gluc2-p107 (UniProt P28749).
T2 sequence: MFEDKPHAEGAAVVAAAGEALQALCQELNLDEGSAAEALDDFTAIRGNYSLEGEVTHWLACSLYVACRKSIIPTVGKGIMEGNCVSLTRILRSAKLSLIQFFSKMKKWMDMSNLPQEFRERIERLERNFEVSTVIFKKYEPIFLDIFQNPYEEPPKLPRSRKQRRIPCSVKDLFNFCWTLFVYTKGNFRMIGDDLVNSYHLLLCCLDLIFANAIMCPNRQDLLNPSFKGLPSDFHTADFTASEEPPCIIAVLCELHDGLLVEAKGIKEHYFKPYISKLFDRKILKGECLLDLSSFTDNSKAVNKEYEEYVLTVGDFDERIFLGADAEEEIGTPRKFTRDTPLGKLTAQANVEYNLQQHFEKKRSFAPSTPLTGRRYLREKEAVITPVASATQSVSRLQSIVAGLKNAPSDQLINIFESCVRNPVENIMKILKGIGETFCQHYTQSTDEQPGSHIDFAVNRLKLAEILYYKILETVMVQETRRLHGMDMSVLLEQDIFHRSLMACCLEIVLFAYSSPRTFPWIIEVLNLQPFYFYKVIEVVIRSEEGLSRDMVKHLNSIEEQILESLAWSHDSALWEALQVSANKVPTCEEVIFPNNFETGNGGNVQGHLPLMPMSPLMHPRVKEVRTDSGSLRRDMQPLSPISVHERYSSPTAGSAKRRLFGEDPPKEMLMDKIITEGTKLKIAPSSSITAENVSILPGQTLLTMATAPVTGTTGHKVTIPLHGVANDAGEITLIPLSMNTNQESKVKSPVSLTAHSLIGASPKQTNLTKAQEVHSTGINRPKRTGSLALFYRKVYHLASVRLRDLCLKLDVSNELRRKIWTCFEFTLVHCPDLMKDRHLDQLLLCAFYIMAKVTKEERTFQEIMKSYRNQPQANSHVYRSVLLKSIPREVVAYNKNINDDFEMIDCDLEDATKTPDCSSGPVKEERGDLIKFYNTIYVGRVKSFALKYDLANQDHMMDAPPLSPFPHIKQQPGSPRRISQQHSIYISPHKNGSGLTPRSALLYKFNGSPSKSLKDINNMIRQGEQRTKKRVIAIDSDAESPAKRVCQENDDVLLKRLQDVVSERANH
The assay is described as follows: split reporter.

Results are given in words; binding and its absence hold for the method and conditions named. In cells and extracts the contact can be indirect. Binding calls can cover weak binding; strength is not graded here. Tags and fused reporters may be left off the sequences shown.

Consider “Gluc1-38.E7 (human papillomavirus type 38)”, for which the binding entry with Gluc2-pRb and with Gluc2-p107 was “binds” each time.

(Values after doi:10.1101/2022.10.27.514150.)
